In PMC6899042, “Perturbation of the titin/MURF1 signaling complex is associated with hypertrophic cardiomyopathy in a fish model and in human patients” (Disease Models & Mechanisms, 2019) one finds binding data, which are given here for four substances.

The chains behind the UniProt entries cited, without tags or fusion partners. A line that says so, or that is headed by a name, gives the form on record, which may keep a tag or linker. Residues count along the entry.
UniProt Q969Q1: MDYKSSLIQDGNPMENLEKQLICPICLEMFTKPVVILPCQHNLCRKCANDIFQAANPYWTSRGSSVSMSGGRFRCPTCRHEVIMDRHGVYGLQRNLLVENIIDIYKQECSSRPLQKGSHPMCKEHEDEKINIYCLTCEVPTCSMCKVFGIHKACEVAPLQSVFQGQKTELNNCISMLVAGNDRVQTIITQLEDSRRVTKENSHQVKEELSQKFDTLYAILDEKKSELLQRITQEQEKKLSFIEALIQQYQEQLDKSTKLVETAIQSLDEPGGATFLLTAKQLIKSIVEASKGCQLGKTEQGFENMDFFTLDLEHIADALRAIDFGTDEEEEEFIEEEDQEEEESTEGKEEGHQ
GFP-tagged WT-TTN-A156 (titin Ig domain A156) (Q8WZ42, residues 30662-30756): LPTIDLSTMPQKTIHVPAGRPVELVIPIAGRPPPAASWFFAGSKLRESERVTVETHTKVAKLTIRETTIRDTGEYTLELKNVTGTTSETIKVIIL
GFP-tagged WT-TTN-A160-161 (titin domains A160-161) (Q8WZ42, residues 31061-31253): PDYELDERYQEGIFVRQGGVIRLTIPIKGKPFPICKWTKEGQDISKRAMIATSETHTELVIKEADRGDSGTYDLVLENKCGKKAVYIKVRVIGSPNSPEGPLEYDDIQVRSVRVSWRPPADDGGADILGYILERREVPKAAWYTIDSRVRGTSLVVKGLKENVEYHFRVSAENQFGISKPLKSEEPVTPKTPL
GFP-tagged WT-TTN-A168-170 (titin domains A168-A170) (Q8WZ42, residues 31855-32155): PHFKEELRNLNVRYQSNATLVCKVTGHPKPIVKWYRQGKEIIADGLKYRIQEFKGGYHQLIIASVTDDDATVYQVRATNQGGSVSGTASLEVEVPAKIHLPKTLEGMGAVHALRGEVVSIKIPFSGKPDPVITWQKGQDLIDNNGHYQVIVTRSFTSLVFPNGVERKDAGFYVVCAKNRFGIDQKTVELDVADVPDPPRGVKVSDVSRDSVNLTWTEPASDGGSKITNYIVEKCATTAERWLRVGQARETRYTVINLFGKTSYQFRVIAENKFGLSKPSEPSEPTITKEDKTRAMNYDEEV
GFP-tagged WT-TTN-A168 (titin Ig domain A168) (Q8WZ42, residues 31855-31948): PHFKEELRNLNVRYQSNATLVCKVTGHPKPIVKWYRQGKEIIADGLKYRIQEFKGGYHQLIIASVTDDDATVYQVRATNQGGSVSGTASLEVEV

These are yes or no findings as the source states them, for the method shown. In cells and extracts the contact can be indirect. Some results given as binding are weak or reduced against the parent protein; the word gives no strength.

The target of the test is myc-tagged MURF1 (muscle-specific ring finger protein 1), full length (human) (UniProt Q969Q1). As to the kind of experiment: co-IP; GFP-tagged TTN fragment co-transfected with myc-tagged MURF1 (COS-7 cells named for A168-170); IP with anti-myc antibody (Catch and Release v2.0 Reversible Immunoprecipitation System), Western blot with anti-GFP; densitometry normalised to the input amount of GFP-TTN, WT set to 1.00 AU. In general terms: Immunoblotting shows a protein as a band on a membrane.
Regarding “GFP-tagged WT-TTN-A156 (titin Ig domain A156) (from UniProt Q8WZ42-11 29735-29829) (domain or fragment)”, the binding result is on record as “binds”.
As for “GFP-tagged WT-TTN-A160-161 (titin domains A160-161) (from UniProt Q8WZ42-11 30134-30326) (domain or fragment)”, the entry is “binds”; as for “GFP-tagged WT-TTN-A168 (titin Ig domain A168) (from UniProt Q8WZ42-11 30928-31021) (domain or fragment)”, “binds”; as for “GFP-tagged WT-TTN-A168-170 (titin domains A168-A170) (from UniProt Q8WZ42-11 30928-31228) (domain or fragment)”, “binds”.
